## Results of single-concentration screens

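Cell assay of Leishmania donovani living inside macrophages; the read-out is not stated. Concentration: 30 µM. The record gives no direction; compounds that gave an IC50 in retests scored well above the rest, so higher reads as stronger inhibition. Size under these conditions: about 69,000 compounds, about 1,000 of them at 50% or above in at least one test.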

Values are the deposited “Percent Effect”, in %.
The controls that fix the scale are not given in the record; negative values are as filed.
The compounds are a random part of those screened.
Two or more numbers in one place are separate tests of the same structure; such repeats can differ widely.

With CCCn1nc2c(cc1=O)CN(Cc1cc(C)no1)CC2 the screen gave -6.384%. CCc1ccc(-c2cc(C(F)(F)F)nc(N3CCC(N)CC3)n2)cc1 gave 44.83%. For O=C(Nc1cccnc1)NC1CCN(c2ccccc2OC(F)F)C1 (stereo not drawn) the result was 25.11%. Result for CC(C)c1ccc(OCn2ccc(C(=O)N3CCCC3)n2)cc1 was 59.3%. O=C(Nc1ccccc1OC1CCOC1)c1ccon1 (stereo not drawn) gave 24.07%. With CS(=O)(=O)c1ccc(-c2nc(C(=O)N3CCCC3)n3ccccc23)cc1 the screen gave 7.686%. CCS(=O)(=O)N1CCC(n2nc(-c3cc(C)oc3C)ccc2=O)CC1 gave -10.06%. Result for CC(NCC(=O)N(C)C1CC1)c1ccc(S(C)(=O)=O)c(F)c1 (stereo not drawn) was 1.838%.

Result for COCC1CCN(c2nc(C(C)(C)C)nc3c2cnn3C)C1 (stereo not drawn) was 35.1%. COc1ccc2cc(C3CN(C(=O)N(C)C)CCO3)ccc2c1 (stereo not drawn) read -25.51%. O=C(Nc1ncn(CC(=O)N2CCCCCC2)n1)C1CCCO1 (stereo not drawn) read -24.76%. For CCN(Cc1cccc2c1OCO2)C(=O)NCCOC the result was 16.43%. Result for CSc1ccc(CNC(=O)C2CC(=O)N(C(C)(C)C)C2)cc1 (stereo not drawn) was 55.18%. For Cc1ocnc1C(=O)N(C)[C@@H]1CC[C@@H](Oc2ccccc2)[C@@H]1O the result was 12.78%. Cc1ccc(C(=O)NCCC(C)C)cc1NS(C)(=O)=O gave -9.52%. COC(=O)C(CO)NC(=O)c1cn(Cc2ccccc2F)nn1 (stereo not drawn) read 16.4%.

With CCc1ncc(C(=O)NCCn2c(C)cc(C)nc2=O)cn1 the screen gave 14.4%. Cc1c(NC(=O)c2cccc(Br)c2)c(C(=O)N(C)C)nn1C gave 15.12%. With Cc1nc(N2CC[C@@H](NC(=O)c3cnccn3)[C@H](O)C2)c2ccsc2n1 the screen gave 46.49%. CC(C)NCc1cccnc1N1CCN(c2ccccn2)CC1 gave 12.85%. O=C(O)C(F)(F)F.O=C(O)C(F)(F)F.[H][C@@]12CCN(c3ncccn3)[C@]1([H])CC[C@@H](C(=O)N1CCN(C)CC1)O2 read 18.69%. O=C(Cc1ccsc1)N1CCc2ccc(=O)n(CC3CC3)c2CC1 gave 10.53%. CC(=O)N1CCCCC12CCCN(Cc1ccco1)C2.O=C(O)C(F)(F)F (stereo not drawn) read 21.35%. With O=C1CCOCCN1Cc1ccc(Cl)c(F)c1 the screen gave -13.49%.

Result for CNS(=O)(=O)c1cccc(C(C)NCc2ccncc2)c1 (stereo not drawn) was 5.754%. With C1CCC(c2nn3c(C4CCCO4)nnc3s2)C1 (stereo not drawn) the screen gave 12.27%. O=C(O)c1cc2n(n1)CCCN(C(=O)CCc1c[nH]c3ccccc13)C2 gave -32.73%. For CC(=O)NCCOc1cccc(Br)c1 the result was 32.8%. Cc1nnc2ccc(OCCNS(C)(=O)=O)nn12 gave 9.574%. Cc1ccc2c(c1C)OCC2NCc1cccc(C#N)c1 (stereo not drawn) gave 7.135%. Cc1ccc(-c2[nH][nH]c(=O)c2CCN)cc1 gave 6.733%. COCc1nn(C(C)C)c2c1CCN(Cc1ccc(C)s1)C2.O=C(O)C(F)(F)F gave 26.5%.

Cc1nn(C)c2cnn(CC(=O)NCCc3ccccc3)c12 read 37.51%. NCC1CCN(c2nc(C3CCCC3)nc3c2CCNCC3)C1 (stereo not drawn) gave -3.279%. Cc1cnn(CCNCC(=O)Nc2ccc(Cl)cn2)c1 read 23.76%. CN(C)CCN1CCOCC2(C1)CN(Cc1ccsc1)CCO2.O=C(O)C(F)(F)F.O=C(O)C(F)(F)F.O=C(O)C(F)(F)F (stereo not drawn) gave 19.3%. CC1CCN(C(=O)c2ccc(N(C)Cc3cnn(C)c3)nc2)CC1 read 4.216%. With CCc1ccc(CN(CCN(C)C)Cc2ccc(C)s2)nc1 the screen gave 60.62%. Cc1noc(C)c1CN1CCCC1c1nnc2ccccn12 (stereo not drawn) read -62.66%. Result for Cc1cc(CNS(C)(=O)=O)ccc1N(C)C was 9.991%.

With COCCN(C)CC1CCCN1S(=O)(=O)c1cccc(F)c1F (stereo not drawn) the screen gave 12.37%. For CCS(=O)(=O)CCNC(=O)c1ccc(-c2ccc(C)cc2)cc1F the result was 12.72%. Result for CC(C)N(CC(=O)Nc1cccc(C#N)c1)C1CC1 was 18.08%. [H][C@@]12CC[C@@](O)(c3ccc(C)cn3)[C@]1([H])CN(Cc1ccc(Cl)cc1Cl)C2 gave 11.5% & 1.719%.

Once more, the final 3:

| SMILES | Percent Effect |
|---|---|
| `CCS(=O)(=O)CCNC(=O)c1ccc(-c2ccc(C)cc2)cc1F` | 12.72 |
| `CC(C)N(CC(=O)Nc1cccc(C#N)c1)C1CC1` | 18.08 |
| `[H][C@@]12CC[C@@](O)(c3ccc(C)cn3)[C@]1([H])CN(Cc1ccc(Cl)cc1Cl)C2` | 11.5 & 1.719 |

Source: ChEMBL document CHEMBL3988442, “University of Dundee, Small-Polar-MMV Screening Library” (2021).